These are yes or no findings as the source states them, for the method shown. Some results given as binding are weak or reduced against the parent protein; the word gives no strength.
How the values were obtained:
[1] = target: extracellular domain of RAGE peptide (sRAGE) (UniProt Q15109); assay: competition ELISA: sRAGE coated, competitor amphoterin (100 ng)
[2] = target: extracellular domain of RAGE peptide (sRAGE) (UniProt Q15109); assay: competition ELISA: sRAGE coated, competitor S100P (100 ng)
[3] = target: extracellular domain of RAGE peptide (sRAGE) (UniProt Q15109); assay: competition ELISA: sRAGE coated, competitors amphoterin and S100P
Purified RAGE = Purified RAGE (UniProt Q15109); assay: competition ELISA: purified RAGE coated, competitor S100P, peptide 50 µM

Amino acid sequences for entries named in this document (tags omitted). Residues count along the entry.
UniProt Q15109, residues 23-342: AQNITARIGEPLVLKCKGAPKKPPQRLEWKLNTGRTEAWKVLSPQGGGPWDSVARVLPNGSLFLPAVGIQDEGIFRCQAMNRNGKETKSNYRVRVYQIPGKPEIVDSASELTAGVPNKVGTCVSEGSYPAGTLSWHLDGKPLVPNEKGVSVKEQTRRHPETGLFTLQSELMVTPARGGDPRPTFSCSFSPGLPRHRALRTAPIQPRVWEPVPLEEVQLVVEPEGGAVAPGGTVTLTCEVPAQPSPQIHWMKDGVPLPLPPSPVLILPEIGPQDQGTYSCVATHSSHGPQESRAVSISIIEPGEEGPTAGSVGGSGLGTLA

Row | binding [1] | binding [2] | binding [3] | binding (Purified RAGE) | Binder
1 | binds | binds |  |  | LKVLMEKEL [Peptide 2 (SEQ ID NO: 7, …)]
2 | binds | binds |  |  | ELKVLMEKEA [Peptide 13 (SEQ ID NO: 17, …)]
3 | binds | binds |  |  | EAKVLMEAEL [Peptide 11 (SEQ ID NO: 15, …)]
4 | binds | binds |  |  | ELKALMEKEL [Peptide 7 (SEQ ID NO: 11, …)]
5 | binds | binds |  |  | ELAVLMEKEL [Peptide 6 (SEQ ID NO: 10, …)]
6 | binds | binds |  |  | EAKVLMAKEL [Peptide 10 (SEQ ID NO: 14, …)]
7 | binds | binds | binds |  | KLKEKYEKDI [Peptide 14 (SEQ ID NO: 18, …)]
8 | binds | binds | binds |  | LKEKYEKDI [Peptide 15 (SEQ ID NO: 19, …)]
9 | binds | binds |  |  | ALKVLMEKEL [Peptide 4 (SEQ ID NO: 8, …)]
10 | binds | binds |  |  | EAKVAMEKEL [Peptide 8 (SEQ ID NO: 12, …)]
11 | binds | binds |  |  | EAKVLAEKEL [Peptide 9 (SEQ ID NO: 13, …)]
12 | binds | binds |  |  | EAKVLMEKEL [Peptide 5 (SEQ ID NO: 9, …)]
13 | binds | binds |  | binds | ELKVLMEKEL [Peptide of SEQ ID NO: 1 (…)]
14 | binds | binds |  |  | ELKVLMEKAL [Peptide 12 (SEQ ID NO: 16, …)]

Source: patent US20100249038A1, “ANTAGONISTS OF THE RECEPTOR FOR ADVANCED GLYCATION END-PRODUCTS (RAGE)” (Board of Regents, University of Texas System, priority 2007, published 2010)
